Source: ChEMBL document CHEMBL3988442, “University of Dundee, Small-Polar-MMV Screening Library” (2021).

Sequences of proteins named here, by UniProt entry; tags and fusion partners are left off.
UniProt E9BF75, entry or part of it: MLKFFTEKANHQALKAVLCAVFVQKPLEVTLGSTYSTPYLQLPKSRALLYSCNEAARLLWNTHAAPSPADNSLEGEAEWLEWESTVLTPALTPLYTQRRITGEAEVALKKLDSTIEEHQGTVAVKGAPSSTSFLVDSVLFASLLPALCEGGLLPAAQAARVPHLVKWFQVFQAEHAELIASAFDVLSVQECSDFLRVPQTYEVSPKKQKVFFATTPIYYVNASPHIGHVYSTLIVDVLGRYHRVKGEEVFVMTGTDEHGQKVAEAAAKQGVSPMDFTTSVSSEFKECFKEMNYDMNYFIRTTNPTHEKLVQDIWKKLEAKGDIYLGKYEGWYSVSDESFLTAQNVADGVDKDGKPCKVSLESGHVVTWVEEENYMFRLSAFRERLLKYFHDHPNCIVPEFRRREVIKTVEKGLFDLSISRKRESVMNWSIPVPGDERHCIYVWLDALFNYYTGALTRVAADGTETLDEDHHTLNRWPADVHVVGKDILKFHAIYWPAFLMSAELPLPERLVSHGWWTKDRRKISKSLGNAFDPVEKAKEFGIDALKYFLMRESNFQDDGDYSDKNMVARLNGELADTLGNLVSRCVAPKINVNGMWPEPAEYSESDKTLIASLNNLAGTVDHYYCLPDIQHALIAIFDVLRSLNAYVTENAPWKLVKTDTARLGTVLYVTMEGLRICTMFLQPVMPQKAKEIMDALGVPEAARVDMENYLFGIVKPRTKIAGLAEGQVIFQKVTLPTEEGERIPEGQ

Mtb heat-shock: 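Assay on Mycobacterium tuberculosis, filed only as a heat shock assay from Cornell; the read-out is not stated. The concentration is filed as 10 mM, unlikely as a test dose, so the dose is not known. Direction is inferred from retests: higher values go with stronger inhibition. Size under these conditions: about 69,000 compounds, about 930 of them at 50% or above in at least one test.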
LdMetRS: 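Methionyl-tRNA synthetase (putative), Leishmania donovani (UniProt E9BF75). Primary screen of methionyl-tRNA synthetase; the read-out is not stated. The test concentration is not given. The values are filed as inhibition. About 68,000 compounds were tested under these conditions; 0.035% (about 24) showed 50% or more at least once.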
Mtb growth Cornell: 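Whole-cell assay for inhibitors of Mycobacterium tuberculosis growth, labelled Cornell in the record; the read-out is not stated. The concentration is filed as 10 mM, unlikely as a test dose, so the dose is not known. Higher means stronger inhibition (inferred from two other growth screens of the library). Of about 53,000 compounds tested this way, about 900 (1.7%) reached 50% or more in at least one test.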

Results are percentages, as filed.
The record does not define 0% and 100%; most values in the screen are far below 50% and negative numbers occur (in some assays of this library far below -100).
This is an unselected part of the compounds tested.
A dash means the value is not listed here; it may have been measured.

- CC(C)c1noc(CCCC(=O)NC(C)c2ccccn2)n1 (stereo not drawn) : Mtb heat-shock: 22.25%; LdMetRS: 14.21%
- CCC(C)Oc1ccc(CNCCNC(C)=O)cc1Cl (stereo not drawn) : Mtb heat-shock: -0.254%; LdMetRS: 20.32%; Mtb growth Cornell: 16.61%
- CCCNC(=O)c1cc(Br)c2c(c1)OCCO2 : Mtb heat-shock: -19.93%; LdMetRS: 15.25%; Mtb growth Cornell: 19.05%
- CN(C)c1ncccc1CNCc1ccc(N2CCOCC2)cc1 : Mtb heat-shock: -29.12%; LdMetRS: 5.426%; Mtb growth Cornell: -5.072%
- Cc1ccnc(NC(=O)c2cccc(OCc3nnnn3C)c2)c1 : Mtb heat-shock: 13.38%; LdMetRS: 15.32%; Mtb growth Cornell: 0.1144%
- CN(C)C(=O)c1cccc(CNc2ccc(C#N)cn2)c1 : Mtb heat-shock: 1.872%; LdMetRS: 9.355%; Mtb growth Cornell: -7.173%
- Cn1ncc2c(N3CC(N4CCCCC4)C3)nc(-c3ccncc3)nc21 : Mtb heat-shock: -15.93%; LdMetRS: 11.31%; Mtb growth Cornell: 7.304%
- CCOCC(=O)N1Cc2nnn(C)c2C(COCc2ccccn2)C1 (stereo not drawn) : LdMetRS: 2.256%
- CN1CCCC(c2cncc(C(=O)NCc3ccccc3Cl)n2)C1.O=CO (stereo not drawn) : Mtb heat-shock: 5.616%; Mtb growth Cornell: 1.656%
- Cc1nc(CNCc2c(C(C)C)nn(C)c2N2CCOCC2)cs1 : Mtb heat-shock: 4.089%; LdMetRS: 17.49%
- COc1ccccc1OCCC(=O)NC1CCc2nc(C)cn2C1 (stereo not drawn) : Mtb heat-shock: -12.57%; LdMetRS: 4.775%; Mtb growth Cornell: -5.474%
- CC1CCN(c2cncc(CCC3CCCN3)n2)CC1.Cl (stereo not drawn) : Mtb heat-shock: -9.936%; Mtb growth Cornell: 12.28%
- Cc1cc2c(=O)n(CCSc3cnn[nH]3)cnc2s1 : Mtb heat-shock: 5.861%; LdMetRS: 17.49%
- CCc1nnnn1Cc1csc(N(C)C(C)=O)n1 : Mtb heat-shock: 10.54%; LdMetRS: 15.32%; Mtb growth Cornell: -6.995%
- N#CCCN(C(=O)CCc1cccnc1)c1ccc2c(c1)OCCO2 : Mtb heat-shock: -15.82%; LdMetRS: 20.72%; Mtb growth Cornell: 6.385%
- CC(=O)Nc1nc(C(=O)Nc2ccc(N3CCCCC3)nc2)cs1 : Mtb heat-shock: 50.82%; LdMetRS: 20.14%
- O=C(O)C(F)(F)F.O=C(c1c[nH]cn1)N1CCC(F)(F)C2(CCN(c3cnccn3)C2)C1 (stereo not drawn) : Mtb heat-shock: 8.384%; Mtb growth Cornell: -12.74%
- COc1ccc(CN(C)CC(=O)NC2(C)CCS(=O)(=O)C2)cc1F (stereo not drawn) : Mtb heat-shock: -7.575%; LdMetRS: 11.19%
- O=C(CN1CCC(OCC2CCCO2)CC1)NCC(F)(F)F (stereo not drawn) : Mtb heat-shock: 12.73%; LdMetRS: 18.55%
- Cc1cc(F)ccc1S(=O)(=O)N1CCN(C)Cc2ccccc21 : Mtb heat-shock: -16.42%; LdMetRS: 20.39%; Mtb growth Cornell: -3.755%
- Cc1cc(C(=O)NCc2cccnc2N(C)C)c(C)o1 : Mtb heat-shock: -24.83%; LdMetRS: 11.05%
- CC(=O)N1CCCC(c2nc(N(C)C)ncc2-c2ccccc2)C1 (stereo not drawn) : Mtb heat-shock: 16.25%; LdMetRS: 10.48%; Mtb growth Cornell: 12.04%
- CC(C)(C)CCN1CCN(c2snc(Cl)c2C#N)CC1 : Mtb heat-shock: -17.53%; LdMetRS: 9.938%; Mtb growth Cornell: 29.85%
- Cc1ccc2c(ccn2CCC(=O)N2CCC(C(N)=O)CC2)c1 : Mtb heat-shock: -7.127%; LdMetRS: 14.52%
- Cc1ncc(CC(=O)N2CCCCC2CCN2CCCC2)c(=O)[nH]1 (stereo not drawn) : Mtb heat-shock: 6.292%; LdMetRS: 17.33%; Mtb growth Cornell: 5.826%
- O=C(O)C(F)(F)F.O=C(O)C(F)(F)F.O=C(O)C(F)(F)F.c1ccc(CN2CCC3(CC2)CCN(Cc2cccs2)C3)nc1 : Mtb heat-shock: -44.21%; Mtb growth Cornell: 14.79%
- CN(C)Cc1nc(C(C)(C)NC(=O)c2ccc3ccccc3c2)no1 : Mtb heat-shock: -23.13%; LdMetRS: 5.59%
- CCCN(Cc1cnn(C)c1)S(=O)(=O)c1cc(C)cc(F)c1 : Mtb heat-shock: -38.78%; LdMetRS: 10.9%; Mtb growth Cornell: -0.3679%

For reference, 3 entries once more:

SMILES	Mtb heat-shock	LdMetRS	Mtb growth Cornell
CCc1nnnn1Cc1csc(N(C)C(C)=O)n1	10.54%	15.32%	-6.995%
CC(C)c1noc(CCCC(=O)NC(C)c2ccccn2)n1 (stereo not drawn)	22.25%	14.21%	-
CCOCC(=O)N1Cc2nnn(C)c2C(COCc2ccccn2)C1 (stereo not drawn)	-	2.256%	-